Assay results published in the supplement of paper PMC12819154, “High-throughput peptide-centric local stability assay extends protein–ligand identification to membrane proteins, tissues and bacteria” (Nature Structural & Molecular Biology, 2025).
The other results are listed elsewhere or left out. Most entries show no effect beyond the scatter of the controls.

By UniProt entry, the sequences of proteins in these tests, tags left out. Where a name states a change or a piece, a line headed by the entry shows the natural chain unless it says otherwise.
UniProt Q9Y388: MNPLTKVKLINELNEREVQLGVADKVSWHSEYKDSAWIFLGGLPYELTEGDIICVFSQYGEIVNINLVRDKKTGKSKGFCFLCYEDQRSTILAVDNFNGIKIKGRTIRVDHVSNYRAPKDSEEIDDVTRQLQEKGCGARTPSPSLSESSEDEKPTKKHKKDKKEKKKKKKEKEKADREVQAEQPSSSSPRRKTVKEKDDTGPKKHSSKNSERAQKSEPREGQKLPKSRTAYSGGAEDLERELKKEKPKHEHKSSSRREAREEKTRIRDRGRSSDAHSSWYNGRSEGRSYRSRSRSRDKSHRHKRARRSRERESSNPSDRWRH
UniProt Q9Y3S2: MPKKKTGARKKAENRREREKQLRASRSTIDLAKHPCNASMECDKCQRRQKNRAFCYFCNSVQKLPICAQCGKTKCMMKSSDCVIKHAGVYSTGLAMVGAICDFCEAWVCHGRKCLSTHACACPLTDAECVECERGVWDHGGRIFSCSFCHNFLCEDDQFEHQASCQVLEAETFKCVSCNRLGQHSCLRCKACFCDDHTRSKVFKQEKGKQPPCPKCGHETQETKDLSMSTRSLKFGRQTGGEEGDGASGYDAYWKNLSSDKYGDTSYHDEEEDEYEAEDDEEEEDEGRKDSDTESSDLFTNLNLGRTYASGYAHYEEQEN
UniProt Q9Y6P5: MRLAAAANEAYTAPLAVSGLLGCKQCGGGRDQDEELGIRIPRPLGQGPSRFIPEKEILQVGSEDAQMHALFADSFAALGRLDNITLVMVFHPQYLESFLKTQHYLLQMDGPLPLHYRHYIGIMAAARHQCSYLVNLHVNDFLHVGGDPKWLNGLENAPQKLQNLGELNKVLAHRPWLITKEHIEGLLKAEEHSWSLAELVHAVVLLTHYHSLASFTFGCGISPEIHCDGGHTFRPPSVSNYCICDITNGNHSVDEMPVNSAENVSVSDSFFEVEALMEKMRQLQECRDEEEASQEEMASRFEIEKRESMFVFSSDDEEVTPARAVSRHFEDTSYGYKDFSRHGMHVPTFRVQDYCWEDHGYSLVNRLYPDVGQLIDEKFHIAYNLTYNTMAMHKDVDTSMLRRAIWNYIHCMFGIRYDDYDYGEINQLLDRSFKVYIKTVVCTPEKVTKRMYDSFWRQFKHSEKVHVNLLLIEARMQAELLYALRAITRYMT
UniProt Q9Y5Y2: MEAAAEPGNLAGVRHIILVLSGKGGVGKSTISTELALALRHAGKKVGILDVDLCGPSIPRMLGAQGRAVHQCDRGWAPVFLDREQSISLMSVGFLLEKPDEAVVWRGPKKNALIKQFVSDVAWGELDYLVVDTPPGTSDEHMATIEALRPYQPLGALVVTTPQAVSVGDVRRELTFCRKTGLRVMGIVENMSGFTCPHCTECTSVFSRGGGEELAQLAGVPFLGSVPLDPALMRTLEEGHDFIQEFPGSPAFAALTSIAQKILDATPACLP
UniProt Q9Y6V7: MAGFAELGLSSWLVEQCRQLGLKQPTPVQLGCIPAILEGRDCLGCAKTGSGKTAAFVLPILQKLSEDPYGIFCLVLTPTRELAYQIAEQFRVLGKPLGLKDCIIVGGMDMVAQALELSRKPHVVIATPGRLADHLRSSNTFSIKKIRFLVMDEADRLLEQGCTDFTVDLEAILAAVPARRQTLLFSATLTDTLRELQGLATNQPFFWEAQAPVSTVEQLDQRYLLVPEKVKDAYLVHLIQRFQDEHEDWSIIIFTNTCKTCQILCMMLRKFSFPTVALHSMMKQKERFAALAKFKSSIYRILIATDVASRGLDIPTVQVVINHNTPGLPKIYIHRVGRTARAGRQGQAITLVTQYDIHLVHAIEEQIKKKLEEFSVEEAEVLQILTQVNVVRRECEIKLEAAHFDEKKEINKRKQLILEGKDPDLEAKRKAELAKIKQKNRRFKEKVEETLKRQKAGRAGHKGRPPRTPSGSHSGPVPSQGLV
UniProt Q9Y2H9: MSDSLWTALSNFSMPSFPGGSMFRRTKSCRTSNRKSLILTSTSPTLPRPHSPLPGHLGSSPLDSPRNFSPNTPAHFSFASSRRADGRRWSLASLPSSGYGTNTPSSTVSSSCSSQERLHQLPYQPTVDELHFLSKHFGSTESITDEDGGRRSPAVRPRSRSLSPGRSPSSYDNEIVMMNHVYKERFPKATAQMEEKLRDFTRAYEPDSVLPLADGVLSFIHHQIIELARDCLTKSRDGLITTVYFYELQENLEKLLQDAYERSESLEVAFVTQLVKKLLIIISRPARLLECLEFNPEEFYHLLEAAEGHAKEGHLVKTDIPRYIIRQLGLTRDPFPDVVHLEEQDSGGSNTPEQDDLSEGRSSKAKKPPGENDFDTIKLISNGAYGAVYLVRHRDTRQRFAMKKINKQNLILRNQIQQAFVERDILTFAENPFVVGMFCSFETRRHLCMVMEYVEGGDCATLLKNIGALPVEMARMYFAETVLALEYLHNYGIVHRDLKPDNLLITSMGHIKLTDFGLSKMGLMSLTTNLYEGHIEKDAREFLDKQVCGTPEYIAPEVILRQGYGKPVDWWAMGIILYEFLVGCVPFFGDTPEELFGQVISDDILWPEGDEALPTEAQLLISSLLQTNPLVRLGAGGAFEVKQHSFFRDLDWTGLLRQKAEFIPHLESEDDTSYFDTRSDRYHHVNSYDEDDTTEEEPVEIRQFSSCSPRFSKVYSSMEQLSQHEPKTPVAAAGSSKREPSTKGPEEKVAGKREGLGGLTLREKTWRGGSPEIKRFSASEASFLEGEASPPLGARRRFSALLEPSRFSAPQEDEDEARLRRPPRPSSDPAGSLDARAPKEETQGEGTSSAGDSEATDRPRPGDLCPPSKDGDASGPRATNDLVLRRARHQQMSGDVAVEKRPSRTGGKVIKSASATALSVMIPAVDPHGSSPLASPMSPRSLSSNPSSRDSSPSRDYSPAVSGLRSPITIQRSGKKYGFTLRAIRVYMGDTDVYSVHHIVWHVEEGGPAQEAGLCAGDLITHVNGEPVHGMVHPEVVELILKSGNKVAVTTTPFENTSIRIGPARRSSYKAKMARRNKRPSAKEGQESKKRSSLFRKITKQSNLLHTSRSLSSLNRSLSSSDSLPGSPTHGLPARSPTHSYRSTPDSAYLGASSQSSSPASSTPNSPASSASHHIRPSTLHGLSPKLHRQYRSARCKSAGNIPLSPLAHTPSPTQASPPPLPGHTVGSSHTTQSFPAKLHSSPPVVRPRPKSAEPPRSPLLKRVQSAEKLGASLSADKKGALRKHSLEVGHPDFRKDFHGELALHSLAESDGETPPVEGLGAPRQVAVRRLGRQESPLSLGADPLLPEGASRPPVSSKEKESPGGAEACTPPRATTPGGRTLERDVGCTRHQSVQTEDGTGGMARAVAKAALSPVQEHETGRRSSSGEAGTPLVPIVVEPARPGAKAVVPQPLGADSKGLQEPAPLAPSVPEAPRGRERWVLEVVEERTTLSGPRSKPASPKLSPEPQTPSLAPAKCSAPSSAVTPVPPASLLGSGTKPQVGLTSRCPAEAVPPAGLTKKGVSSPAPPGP
UniProt Q9Y6M1: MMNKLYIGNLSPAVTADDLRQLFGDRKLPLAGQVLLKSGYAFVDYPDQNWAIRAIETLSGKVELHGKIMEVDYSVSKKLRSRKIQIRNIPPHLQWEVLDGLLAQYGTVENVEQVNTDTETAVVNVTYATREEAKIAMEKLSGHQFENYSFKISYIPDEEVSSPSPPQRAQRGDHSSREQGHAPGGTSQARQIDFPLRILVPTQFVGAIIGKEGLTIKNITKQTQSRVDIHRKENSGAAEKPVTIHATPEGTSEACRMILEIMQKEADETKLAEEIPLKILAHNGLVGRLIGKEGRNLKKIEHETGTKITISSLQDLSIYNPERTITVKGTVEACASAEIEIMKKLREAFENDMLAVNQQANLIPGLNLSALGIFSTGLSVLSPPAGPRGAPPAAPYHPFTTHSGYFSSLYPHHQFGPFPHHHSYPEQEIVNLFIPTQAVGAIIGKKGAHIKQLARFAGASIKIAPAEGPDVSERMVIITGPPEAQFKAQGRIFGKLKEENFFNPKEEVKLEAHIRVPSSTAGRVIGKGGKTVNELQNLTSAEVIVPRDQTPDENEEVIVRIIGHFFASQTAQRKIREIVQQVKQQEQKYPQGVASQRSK
UniProt Q9Y265, whole entry: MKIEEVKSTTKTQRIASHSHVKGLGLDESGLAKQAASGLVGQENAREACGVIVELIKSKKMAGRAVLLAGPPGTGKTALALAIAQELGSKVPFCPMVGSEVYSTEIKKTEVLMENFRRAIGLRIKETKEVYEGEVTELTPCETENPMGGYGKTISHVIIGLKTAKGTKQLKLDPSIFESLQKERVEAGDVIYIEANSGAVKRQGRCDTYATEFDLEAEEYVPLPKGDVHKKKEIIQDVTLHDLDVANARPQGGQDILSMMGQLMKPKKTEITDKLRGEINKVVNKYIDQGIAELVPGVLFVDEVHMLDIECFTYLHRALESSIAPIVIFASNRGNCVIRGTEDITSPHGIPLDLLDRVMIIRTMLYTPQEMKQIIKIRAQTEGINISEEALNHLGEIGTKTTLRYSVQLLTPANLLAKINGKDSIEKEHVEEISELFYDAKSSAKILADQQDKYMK
UniProt Q9Y6D9: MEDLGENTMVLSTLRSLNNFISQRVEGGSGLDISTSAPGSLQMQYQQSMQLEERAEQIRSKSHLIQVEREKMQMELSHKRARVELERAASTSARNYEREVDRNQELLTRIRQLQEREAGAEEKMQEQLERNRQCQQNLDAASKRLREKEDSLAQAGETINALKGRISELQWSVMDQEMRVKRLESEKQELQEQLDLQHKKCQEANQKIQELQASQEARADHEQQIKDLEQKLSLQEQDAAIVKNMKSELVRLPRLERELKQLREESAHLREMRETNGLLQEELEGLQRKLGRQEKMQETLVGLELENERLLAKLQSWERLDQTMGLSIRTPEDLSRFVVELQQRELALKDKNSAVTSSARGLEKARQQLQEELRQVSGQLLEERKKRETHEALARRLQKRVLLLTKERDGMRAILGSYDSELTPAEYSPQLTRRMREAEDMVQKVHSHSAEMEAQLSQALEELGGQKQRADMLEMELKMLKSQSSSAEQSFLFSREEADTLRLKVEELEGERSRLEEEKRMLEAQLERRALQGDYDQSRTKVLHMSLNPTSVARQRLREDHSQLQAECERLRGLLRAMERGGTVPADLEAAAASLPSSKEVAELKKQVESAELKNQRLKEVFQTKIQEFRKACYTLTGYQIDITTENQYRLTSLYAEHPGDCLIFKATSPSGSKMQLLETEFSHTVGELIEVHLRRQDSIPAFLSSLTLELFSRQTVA
UniProt Q9Y6R0: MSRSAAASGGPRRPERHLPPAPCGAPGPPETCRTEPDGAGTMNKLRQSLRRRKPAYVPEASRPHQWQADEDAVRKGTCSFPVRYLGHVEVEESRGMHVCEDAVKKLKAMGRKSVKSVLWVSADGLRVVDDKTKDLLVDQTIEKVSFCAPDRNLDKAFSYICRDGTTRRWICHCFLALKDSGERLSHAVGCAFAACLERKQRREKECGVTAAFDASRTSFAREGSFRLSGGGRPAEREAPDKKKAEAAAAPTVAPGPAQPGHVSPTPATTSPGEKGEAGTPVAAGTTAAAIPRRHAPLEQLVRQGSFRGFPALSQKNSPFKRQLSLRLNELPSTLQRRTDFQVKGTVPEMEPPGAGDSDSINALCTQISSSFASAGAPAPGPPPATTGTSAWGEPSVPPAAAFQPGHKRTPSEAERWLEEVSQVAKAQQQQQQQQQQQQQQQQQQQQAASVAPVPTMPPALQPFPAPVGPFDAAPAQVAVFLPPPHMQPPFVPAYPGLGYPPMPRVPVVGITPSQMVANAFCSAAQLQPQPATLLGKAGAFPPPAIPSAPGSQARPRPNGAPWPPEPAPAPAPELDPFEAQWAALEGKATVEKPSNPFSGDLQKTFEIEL

Compound: Cc1nc(Nc2ncc(C(=O)Nc3c(C)cccc3Cl)s2)cc(N2CCN(CCO)CC2)n1 [dasatinib]
Experiment: log2 fold change of tryptic peptide abundance, ligand vs vehicle (limited proteolysis) (log2 ratio); higher = more trypsin-susceptible (destabilized)
Conditions: ligand concentration: 5 uM; sample: K562 cleared lysate

Row | Target | log2 fold change
1 | RBMX2 (peptide sequence: TIRVDHVSNYR, peptide start residue: 106) (UniProt Q9Y388) | -0.501
2 | ZNF330 (peptide sequence: CKACFCDDHTR, peptide start residue: 189) (UniProt Q9Y3S2) | 0.0701
3 | SESN1 (peptide sequence: HSEKVHVNLLLIEAR, peptide start residue: 461) (UniProt Q9Y6P5) | 0.0535
4 | NUBP2 (peptide sequence: AVHQCDRGWAPVFLDR, peptide start residue: 68) (UniProt Q9Y5Y2) | 0.386
5 | DDX49 (peptide sequence: SSNTFSIK, peptide start residue: 137) (UniProt Q9Y6V7) | -0.531
6 | MAST1 (peptide sequence: DLKPDNLLITSMGHIK, peptide start residue: 635) (UniProt Q9Y2H9) | 0.171
7 | IGF2BP2 (peptide sequence: ILAHNGLVGR, peptide start residue: 279) (UniProt Q9Y6M1) | -0.109
8 | RUVBL1 (peptide sequence: TISHVIIGLKTAK, peptide start residue: 153) (UniProt Q9Y265) | 0.533
9 | MAD1L1 (peptide sequence: FVVELQQR, peptide start residue: 337) (UniProt Q9Y6D9) | -0.0904
10 | NUMBL (peptide sequence: LSHAVGCAFAACLER, peptide start residue: 154) (UniProt Q9Y6R0) | -0.095
